# Source: patent US9315520B2, “2-amino-6-methyl-4,4a,5,6-tetrahydropyrano[3,4-d][1,3]thiazin-8a(8H)-yl-1,3-thiazol-4-yl amides” (Pfizer Inc., priority 2014, dated 2016)
# Chains of the proteins cited; added tags and fusions are not shown. Residues count along the entry.
# UniProt Q9Y5Z0, 63-518: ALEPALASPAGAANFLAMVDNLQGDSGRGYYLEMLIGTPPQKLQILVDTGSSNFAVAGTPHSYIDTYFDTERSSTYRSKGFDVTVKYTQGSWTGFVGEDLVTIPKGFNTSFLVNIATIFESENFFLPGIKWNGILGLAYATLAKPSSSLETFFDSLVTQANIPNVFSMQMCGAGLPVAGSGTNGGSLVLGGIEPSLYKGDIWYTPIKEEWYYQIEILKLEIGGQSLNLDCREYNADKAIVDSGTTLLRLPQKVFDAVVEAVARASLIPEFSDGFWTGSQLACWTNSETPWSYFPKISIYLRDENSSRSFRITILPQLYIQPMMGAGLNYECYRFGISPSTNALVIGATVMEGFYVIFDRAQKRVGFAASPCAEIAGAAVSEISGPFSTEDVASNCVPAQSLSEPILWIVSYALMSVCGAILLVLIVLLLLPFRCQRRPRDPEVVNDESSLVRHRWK
# For at least one compound, name, drawing or mass did not settle the structure.
# Biological target: human BACE2 (Homo sapiens (Human), UniProt Q9Y5Z0)
# Test: BACE2 binding assay (SPA)
# Conditions: ratio of IC50 from BACE2 and BACE1 binding assays, pH 6.0
# Source text: BACE2/BACE1 Binding Ratio:
# The BACE1 and BACE2 binding assays measured beta-site amyloid precursor protein-cleaving enzyme (BACE) binding as a decrease in the counts of radioligand bound in a scintillation proximity assay (SPA). Utilizing a radiolabeled small molecule BACE active site binding inhibitor and crude HEK cell membrane preparations over-expressing full length BACE1 or BACE2, the binding of enzyme by test compound was monitored as a reduction of specific counts bound at pH 6.0. Full length human BACE1 or BACE2 over-expressed in HEK cells was prepared by Pfizer scientists. Frozen stock cell paste was reacted in 50 mM sodium acetate buffer (pH=6.0) containing 3H-(4aR,6R,8aS)-8a-(2,4-difluorophenyl)-6-(1-methyl-1H-pyrazol-4-yl)-4,4a,5,6,8,8a-hexahydropyrano[3,4-d][1,3]thiazin-2-amine ligand, SPA bead and 60 μM to 600 pM of test compound in an assay volume of 27 uL. The compound plate also contained positive (BACE inhibitor) and negative (DMSO) control wells. The binding was carried out at room temperature for 30 minutes and then the plates were read on a TriLux Microbeta reader to determine the number of counts bound.
smiles,measurement,value
"C[C@H]1C[C@H]2CSC(N)=N[C@@]2(c2nc(NC(=O)c3cnc(OC(F)F)cn3)cs2)CO1 [Example 2, N-{2-[(4aR,6S,8aR)-2-amino-6-methyl-4,4a,5,6-tetrahydropyrano[3,4-d][1,3]thiazin-8a(8H)-yl]-1,3-thiazol-4-yl}-5-(difluoromethoxy)pyrazine-2-carboxamide]",BACE2/BACE1 Binding Ratio,25.8
